# Percent effect of library compounds

The chains behind the UniProt entries cited, without tags or fusion partners. Residues count along the entry.
UniProt Q8IDJ8, 1-583: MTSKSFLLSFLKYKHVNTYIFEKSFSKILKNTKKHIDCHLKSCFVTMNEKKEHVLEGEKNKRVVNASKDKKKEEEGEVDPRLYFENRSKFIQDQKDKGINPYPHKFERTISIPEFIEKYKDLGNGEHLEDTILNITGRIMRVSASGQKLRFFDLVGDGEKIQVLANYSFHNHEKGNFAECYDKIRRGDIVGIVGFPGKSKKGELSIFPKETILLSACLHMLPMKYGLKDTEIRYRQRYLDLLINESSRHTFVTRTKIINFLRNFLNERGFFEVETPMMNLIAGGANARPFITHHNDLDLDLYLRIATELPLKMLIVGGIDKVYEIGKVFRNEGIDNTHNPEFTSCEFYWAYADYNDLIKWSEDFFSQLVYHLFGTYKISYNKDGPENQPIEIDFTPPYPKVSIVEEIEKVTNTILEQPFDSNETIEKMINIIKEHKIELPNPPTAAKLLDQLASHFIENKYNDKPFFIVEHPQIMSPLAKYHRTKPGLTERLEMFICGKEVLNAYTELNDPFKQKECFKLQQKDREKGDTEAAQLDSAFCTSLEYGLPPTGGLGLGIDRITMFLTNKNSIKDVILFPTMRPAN
UniProt I6X8D2, whole entry: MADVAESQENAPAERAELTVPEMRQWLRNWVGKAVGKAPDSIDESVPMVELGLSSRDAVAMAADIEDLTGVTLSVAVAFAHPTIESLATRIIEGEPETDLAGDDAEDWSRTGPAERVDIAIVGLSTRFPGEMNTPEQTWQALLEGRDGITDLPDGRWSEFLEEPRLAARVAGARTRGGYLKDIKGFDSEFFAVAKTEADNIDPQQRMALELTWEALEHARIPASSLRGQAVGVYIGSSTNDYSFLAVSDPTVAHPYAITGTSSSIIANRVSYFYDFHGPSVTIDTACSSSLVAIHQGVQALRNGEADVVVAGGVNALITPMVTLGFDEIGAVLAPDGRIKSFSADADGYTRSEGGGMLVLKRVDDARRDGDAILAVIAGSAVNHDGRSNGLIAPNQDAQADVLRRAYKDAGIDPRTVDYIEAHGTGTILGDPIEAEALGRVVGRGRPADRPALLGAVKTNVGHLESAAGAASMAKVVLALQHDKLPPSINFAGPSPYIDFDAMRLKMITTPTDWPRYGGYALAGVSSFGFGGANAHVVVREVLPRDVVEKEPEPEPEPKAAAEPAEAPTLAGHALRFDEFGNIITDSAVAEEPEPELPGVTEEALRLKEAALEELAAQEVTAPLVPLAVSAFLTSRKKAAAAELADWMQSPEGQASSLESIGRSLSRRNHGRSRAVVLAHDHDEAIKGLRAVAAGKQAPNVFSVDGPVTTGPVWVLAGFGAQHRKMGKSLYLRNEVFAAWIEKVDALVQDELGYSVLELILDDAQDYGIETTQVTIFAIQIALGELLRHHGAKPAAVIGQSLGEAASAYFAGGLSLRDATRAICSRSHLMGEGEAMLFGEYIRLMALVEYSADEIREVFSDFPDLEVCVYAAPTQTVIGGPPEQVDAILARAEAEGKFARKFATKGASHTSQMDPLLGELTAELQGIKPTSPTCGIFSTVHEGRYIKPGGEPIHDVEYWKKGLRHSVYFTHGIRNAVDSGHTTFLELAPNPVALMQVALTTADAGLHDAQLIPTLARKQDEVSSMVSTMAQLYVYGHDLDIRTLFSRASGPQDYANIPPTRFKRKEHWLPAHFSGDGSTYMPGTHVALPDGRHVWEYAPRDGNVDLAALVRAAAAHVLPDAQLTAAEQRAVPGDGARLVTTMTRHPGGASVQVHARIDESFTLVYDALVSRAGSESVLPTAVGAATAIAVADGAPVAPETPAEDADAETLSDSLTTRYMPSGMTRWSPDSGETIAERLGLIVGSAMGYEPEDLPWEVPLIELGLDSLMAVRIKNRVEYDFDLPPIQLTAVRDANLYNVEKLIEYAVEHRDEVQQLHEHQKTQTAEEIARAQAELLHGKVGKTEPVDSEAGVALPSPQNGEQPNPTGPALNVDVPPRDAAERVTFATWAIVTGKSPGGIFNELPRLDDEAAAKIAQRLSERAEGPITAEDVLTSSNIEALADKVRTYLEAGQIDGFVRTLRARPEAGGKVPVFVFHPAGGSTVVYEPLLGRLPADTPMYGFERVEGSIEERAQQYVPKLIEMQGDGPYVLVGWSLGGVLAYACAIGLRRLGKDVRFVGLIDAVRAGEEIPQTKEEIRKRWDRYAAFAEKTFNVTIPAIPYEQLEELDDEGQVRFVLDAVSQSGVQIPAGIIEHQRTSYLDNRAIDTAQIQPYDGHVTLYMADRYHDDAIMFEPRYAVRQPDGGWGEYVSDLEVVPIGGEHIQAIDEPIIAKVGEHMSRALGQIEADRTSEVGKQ
UniProt P9WFT3, whole entry: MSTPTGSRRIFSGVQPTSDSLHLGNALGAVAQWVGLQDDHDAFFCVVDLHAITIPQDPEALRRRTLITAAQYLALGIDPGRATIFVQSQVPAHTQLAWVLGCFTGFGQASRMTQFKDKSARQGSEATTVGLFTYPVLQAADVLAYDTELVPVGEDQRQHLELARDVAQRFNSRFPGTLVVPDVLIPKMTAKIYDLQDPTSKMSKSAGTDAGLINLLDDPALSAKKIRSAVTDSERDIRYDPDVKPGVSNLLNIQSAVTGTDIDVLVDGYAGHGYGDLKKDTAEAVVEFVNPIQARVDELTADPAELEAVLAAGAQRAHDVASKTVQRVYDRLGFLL
UniProt Q4DA54, 1-478: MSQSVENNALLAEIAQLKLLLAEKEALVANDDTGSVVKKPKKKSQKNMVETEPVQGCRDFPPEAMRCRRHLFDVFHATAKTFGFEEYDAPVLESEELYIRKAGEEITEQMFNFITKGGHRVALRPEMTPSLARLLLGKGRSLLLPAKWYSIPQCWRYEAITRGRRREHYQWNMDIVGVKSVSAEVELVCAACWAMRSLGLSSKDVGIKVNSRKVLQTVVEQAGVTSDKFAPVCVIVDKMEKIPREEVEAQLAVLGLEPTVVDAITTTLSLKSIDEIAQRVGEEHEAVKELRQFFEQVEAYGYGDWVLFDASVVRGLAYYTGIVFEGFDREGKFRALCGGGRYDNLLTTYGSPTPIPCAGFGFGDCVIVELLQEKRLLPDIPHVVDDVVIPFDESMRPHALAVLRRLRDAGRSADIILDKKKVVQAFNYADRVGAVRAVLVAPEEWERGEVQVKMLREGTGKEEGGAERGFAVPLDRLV

A: 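Enzyme assay of the cytosolic lysyl-tRNA synthetase in 384-well plates, read by luminescence. Target: Lysine-tRNA ligase, Plasmodium falciparum 3D7 (UniProt Q8IDJ8). Tested at 30 µM. Higher reads as stronger inhibition, judged from the few compounds that gave an IC50. Of about 69,000 compounds tested this way, about 49 (0.071%) reached 50% or more in at least one test.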
B: 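Polyketide synthase Pks13, Mycobacterium tuberculosis (UniProt I6X8D2). Enzyme assay of the thioesterase domain of polyketide synthase 13; the read-out is not stated. Compounds at 30 µM. The record gives no direction; the compounds picked for IC50 retests had high values, so higher reads as stronger inhibition. Of about 67,000 compounds tested this way, about 300 (0.46%) reached 50% or more in at least one test.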
C: 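Enzyme assay of tryptophanyl-tRNA synthetase; the read-out is not stated. Target: Tryptophan-tRNA ligase, Mycobacterium tuberculosis (UniProt P9WFT3). Compounds at 10 µM. Higher most likely means stronger inhibition; the record gives no direction and few retests gave an IC50. Size under these conditions: about 65,000 compounds, about 64 of them at 50% or above in at least one test.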
D: 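Histidine-tRNA ligase, Trypanosoma cruzi CL Brener (UniProt Q4DA54). Enzyme assay of histidyl-tRNA synthetase; the read-out is not stated. Concentration: 30 µM. The record gives no direction; compounds that gave an IC50 in retests scored well above the rest, so higher reads as stronger inhibition. About 69,000 compounds were tested under these conditions; 0.045% (about 31) showed 50% or more at least once.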

Each number is a percent effect as filed. How 0% and 100% were set is not recorded. Most values in the screen are low, and negative values occur. This is an unselected part of the compounds tested.

For OC(CN1CCC(CNCc2ccccn2)CC1)c1ccccc1 (stereo not shown) the result was A: 1.971%; C: -4.601%; D: 3.944%. CNC(=O)Cn1c(-c2ccco2)nn(-c2ccccc2OC)c1=O gave A: -4.582%; B: -13.54%; C: -3.382%; D: 2.4%. For O=C(c1ccccc1F)N1CCC2(CC1)CC(N1CCCC1)CO2 (stereo not shown) the result was A: 5.777%; B: -2.53%; D: 7.735%. For Cc1ccc(C(=O)O)cc1S(=O)(=O)N(CC(C)O)c1ccccc1 (stereo not shown) the result was A: 6.46%; B: -41.61%; C: -0.4128%; D: 9.211%. O=c1cc2c(nn1CN1CCN(c3ccccc3)CC1)CCC2 read A: 6.472%; B: -28.82%; C: -4.02%; D: 1.639%.

Result for CCCn1nc(C)c(CNC(=O)c2snnc2C)c1C was A: 0.5278%; B: -9.55%; C: 0.4955%; D: -2.564%. O=C(NCCc1csc(-c2cnccn2)n1)c1cnn[nH]1 read A: 0.4906%; B: -72.27%; C: 0.5696%; D: 3.361%. O=C(Nc1ccccc1OC1CCOC1)c1[nH]nc2c1CCCC2 (stereo not shown) gave A: -1.465%; B: -42.6%; C: -10.32%; D: 1.657%. For O=S(=O)(C1CC1)N1CC[C@]2(C[C@@H](Oc3ncccc3F)CO2)C1 the result was A: 6.029%; B: -10.64%; C: 1.744%; D: 2.479%. CCc1nnc2n1CCN(C(=O)c1ccc3cc[nH]c3c1)C2 gave A: 6.212%; B: -8.773%; C: 3.055%; D: 3.125%.

NC(=O)c1cnc(NC2CCN(c3ccccn3)CC2)c(Cl)c1 read A: 3.336%; B: -35.2%; C: 3.749%; D: 2.02%. With CC1=N[C@@]2(CC[C@@H]3CN(C(=O)NCc4ccccc4C)C[C@@H]32)C(=O)N1 the screen gave A: 8.69%; B: -15.89%; C: -4.202%; D: 10.92%. With O=C(NC1CCCN(c2ccc(OC(F)F)cc2)C1)c1cc[nH]n1 (stereo not shown) the screen gave A: 0.2531%; B: -14.63%; C: -3.818%; D: 1.299%. For N[C@@H]1c2ccccc2C2(CCN(c3cccc(C(F)(F)F)n3)CC2)[C@H]1O the result was A: 4.86%; B: 11.56%; C: 3.807%; D: 9.756%. CCN(C(=O)CN1CCC(c2cc3ccccc3[nH]2)CC1)C1CC1 gave A: -4.84%; B: 27.03%; C: 9.417%; D: 8.824%.

O=C(NCCNc1ncccn1)C1CCN(C(=O)N2CCCC2)CC1 read A: 0.3881%; B: -9.432%; C: -7.592%; D: 4.07%.

The last 2 entries again:

For CCN(C(=O)CN1CCC(c2cc3ccccc3[nH]2)CC1)C1CC1 the result was A: -4.84%; B: 27.03%; C: 9.417%; D: 8.824%.
For O=C(NCCNc1ncccn1)C1CCN(C(=O)N2CCCC2)CC1 the result was A: 0.3881%; B: -9.432%; C: -7.592%; D: 4.07%.

Measurements from “University of Dundee, Small-Polar-MMV Screening Library” (2021), ChEMBL document CHEMBL3988442.